Results: US20160046678A1 (ZYNGENIA, published 2016)
Results are given in words; binding and its absence hold for the method and conditions named. Some results given as binding are weak or reduced against the parent protein; the word gives no strength.

The chains behind the UniProt entries cited, without tags or fusion partners. Residues count along the entry.
UniProt P05231, residues 30-212: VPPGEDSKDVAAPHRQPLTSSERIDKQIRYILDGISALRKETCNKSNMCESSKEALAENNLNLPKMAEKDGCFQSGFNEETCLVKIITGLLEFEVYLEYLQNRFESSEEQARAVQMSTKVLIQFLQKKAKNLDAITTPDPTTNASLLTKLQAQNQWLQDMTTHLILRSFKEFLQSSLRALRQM

B1: ILB840 (peptide)
peptide: FNEDCMWDPLLMDCAYSPGQGSATGGSGSTASAAGGSGEDQCKLFGSGLDTCIPYV
B2: ILB844 (peptide)
peptide: FNEDCMWDPLLMDCAYSPGQGSATGGSGSTASAAGNCSCFIKPVGPDCWAVS
B3: ILB848 (peptide)
peptide: FNEDCMWDPLLMDCAYSPGQGSATGGSAAGGSETLPCQYWGQSWCSQSAQG
B4: ILB861 (peptide)
peptide: FNEDCMWDPLLMDCAYSPGQGSATGGSAAGGSYQPGCAQWWDMERGCFITQ

target: IL6 (UniProt P05231); assay: MRD identification, Example 48

Binder | binding
FNEDCMWDPLLMDCAYSPAGGSPKSECVAPLEMIECPSLW [ILB833] | binds
FNEDCMWDPLLMDCAYSPGQGSAAGGSSVFWCYSQHGCALTSQG [ILB834] | binds
FNEDCMWDPLLMDCAYSPGQGSAAGGGSPRAWQFPVSS [ILB835] | binds
FNEDCMWDPLLMDCAYSPGQGSATGGSAAGGGSICMEYPIIRPCT [ILB836] | binds
FNEDCMWDPLLMDCAYSPGQGSAAGGGSPCLSWYVAPMF [ILB837] | binds
FNEDCMWDPLLMDCAYSPGQGSAAGGSADDCCVSHLPFIGYCGFVRQG [ILB838] | binds
B1 | binds
FNEDCMWDPLLMDCAYSPGQGSAAGGGSPCVKAPEFDWCT [ILB842] | binds
FNEDCMWDPLLMDCAYSPGQGSAAGGSHESCAVHYQHGCPYASQG [ILB843] | binds
B2 | binds
FNEDCMWDPLLMDCAYSPGQGSAAGGGSEEQPTEWHVY [ILB846] | binds
FNEDCMWDPLLMDCAYSPAGGSETFDCNTPWEHECYGRF [ILB847] | binds
B3 | binds
FNEDCMWDPLLMDCAYSPGQGSATGGSGSTASAAGGGSPCTPWTEWQQCP [ILB849] | binds
FNEDCMWDPLLMDCAYSPGQGSAAGGSHSMLCQPWHLCPPAQQG [ILB850] | binds
FNEDCMWDPLLMDCAYSPGQGSATGGSGSTASAAGGGSKCSIDVQQCM [ILB851] | binds
FNEDCMWDPLLMDCAYSPGQGSAAGGGSQPWRHNMQKI [ILB852] | binds
FNEDCMWDPLLMDCAYSPGQGSATGGSAAGGGSHHKNNGTIYQ [ILB853] | binds
FNEDCMWDPLLMDCAYSPGQGSAAGGGSPAERMKMHMF [ILB854] | binds
FNEDCMWDPLLMDCAYSPGQGSAAGGGSREFTQNWSIY [ILB855] | binds

Binder | binding
FNEDCMWDPLLMDCAYSPGQGSATGGSGSTASAAGGGSAYTMWQYHKF [ILB856] | binds
FNEDCMWDPLLMDCAYSPGQGSAAGGGSYMGQIPAHNI [ILB857] | binds
FNEDCMWDPLLMDCAYSPGQGSATGGSAAGGGSKCWSFSGNRPCP [ILB858] | binds
FNEDCMWDPLLMDCAYSPGQGSAAGGGSPDWITWQPAW [ILB860] | binds
B4 | binds
FNEDCMWDPLLMDCAYSPGQGSAAGGGSSYWEHGWPWQ [ILB862] | binds
FNEDCMWDPLLMDCAYSPGQGSAAGGGSWPSPPWKQMV [ILB863] | binds
FNEDCMWDPLLMDCAYSPAGGGSDEFQFGSEMM [ILB864] | binds
FNEDCMWDPLLMDCAYSPGQGSAAGGGSINALGVAVQH [ILB865] | binds
FNEDCMWDPLLMDCAYSPGQGSAAGGGSQWQWKIHPAE [ILB866] | binds
FNEDCMWDPLLMDCAYSPGQGSAAGGGSLCERPLHTPWA [ILB867] | binds
FNEDCMWDPLLMDCAYSPGQGSAAGGGSPWAKNRHEAV [ILB868] | binds
FNEDCMWDPLLMDCAYSPAGGGSQPWRHNMQKI [ILB869] | binds
FNEDCMWDPLLMDCAYSPAGGSIRGLSCWPQDCGLEEL [ILB870] | binds
FNEDCMWDPLLMDCAYSPGQGSAAGGGSLNFGSYSTPH [ILB871] | binds
FNEDCMWDPLLMDCAYSPGQGSAAGGGSHYLWQEKTYK [ILB872] | binds
FNEDCMWDPLLMDCAYSPGQGSATGGSGSTASAAGGGSDCGANHEHCS [ILB873] | binds
FNEDCMWDPLLMDCAYSPGQGSATGGSGSTASAAGGGSRVQIIVPEKW [ILB874] | binds
FNEDCMWDPLLMDCAYSPGQGSAAGGGSEHHWEHPTNF [ILB875] | binds
FNEDCMWDPLLMDCAYSPGQGSATGGSAAGGSSAHDCTEESWCWMEVQG [ILB876] | binds
